PubChem BioAssay AID1259424, University of Nebraska Medical Center – 2018
Test: 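Seek colon cancer survival genes behaving like KSR1, using a six-gene signature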 (primary screen). Cell system: human HCT116 colon cancer cells. Reagents: siRNA pool against human genes, 50 nM. Measured: 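Six signature mRNAs by branched-DNA multiplex assay, scaled to two housekeeping genes and non-targeting median, log2; matched to mean KSR1 knockdown profile by Pearson correlation and euclidean distance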. Direction: mean correlation with KSR1 profile: higher = expression change more like KSR1 knockdown; mean distance from KSR1 profile: higher = expression change less like KSR1 knockdown.
Here is a random part of about 14,000 reagents tested. 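Higher correlation or smaller distance means closer resemblance to KSR1 loss; control wells, including KSR1 knockdowns, recur on many plates.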 Further read-outs or replicates are left out here. Not stated in the record: the time to read-out.

MMP2 (matrix metallopeptidase 2) → mean correlation with KSR1 profile = 0.307; mean distance from KSR1 profile = 1.09
CASP1 (caspase 1) → mean correlation with KSR1 profile = -0.808; mean distance from KSR1 profile = 3.05
CDC42BPG (CDC42 binding protein kinase gamma) → mean correlation with KSR1 profile = 0.657; mean distance from KSR1 profile = 2.34
P2RX3 (purinergic receptor P2X 3) → mean correlation with KSR1 profile = 0.0911; mean distance from KSR1 profile = 1.5
NCLN (nicalin) → mean correlation with KSR1 profile = 0.426; mean distance from KSR1 profile = 3.6
SH2D4A (SH2 domain containing 4A) → mean correlation with KSR1 profile = -0.576; mean distance from KSR1 profile = 1.6
RTP3 (receptor transporter protein 3) → mean correlation with KSR1 profile = 0.155; mean distance from KSR1 profile = 2.62
FGF20 (fibroblast growth factor 20) → mean correlation with KSR1 profile = 0.00365; mean distance from KSR1 profile = 2.4
WDR87 (WD repeat domain 87) → mean correlation with KSR1 profile = 0.407; mean distance from KSR1 profile = 1.82
PLS1 (plastin 1) → mean correlation with KSR1 profile = 0.635; mean distance from KSR1 profile = 0.659
MELK (maternal embryonic leucine zipper kinase) → mean correlation with KSR1 profile = 0.0598; mean distance from KSR1 profile = 2.48
FRMD5 (FERM domain containing 5) → mean correlation with KSR1 profile = 0.185; mean distance from KSR1 profile = 3.37

Not a retest: entries from further up.
WDR87 (WD repeat domain 87) → mean correlation with KSR1 profile = 0.407; mean distance from KSR1 profile = 1.82
PLS1 (plastin 1) → mean correlation with KSR1 profile = 0.635; mean distance from KSR1 profile = 0.659
